Source: the supplement of paper PMC12067093, “Discovery and optimisation of a covalent ligand for TRIM25 and its application to targeted protein ubiquitination” (Chemical Science, 2025)
This is one part of the list.

Compound: Cc1cc(ccc1-c1ccccc1)C(=O)N1CCCN(CC1)C(=O)CCl [compound 10]
Assay: probe-labelled cysteine peptide fold change vs DMSO (competition) (log2 fold change); higher = less target engagement (more negative = stronger competition)
Conditions: THP-1, incubation time: 4 h
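Further: competitive profiling in live THP-1 cells: cysteine peptides tagged with an iodoacetamide desthiobiotin (IA-DTB) probe, intensity after compound treatment relative to DMSO-treated cells.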

Target	probe-labelled cysteine peptide fold change (10 µM)	probe-labelled cysteine peptide fold change (50 µM)
EPB41L2_O43491_248_VCEHLNLLEK (UniProt O43491)	0.164	0.142
ELP2_Q6IA86_127_RTSDPALCTLIVSAAADSAVR (UniProt Q6IA86)	-0.0394	0.195
EIPR1_Q53HC9_95_VLTCAAVWR (UniProt Q53HC9)	0.205	0.175
ELOC_Q15369_11_TYGGCEGPDAMYVK (UniProt Q15369)	-0.0831	-0.111
EPRS_P07814_92_LSSCDSFTSTINELNHCLSLR (UniProt P07814)	-0.0495	-0.175
ERCC1_P07992_274_EDLALCPGLGPQK (UniProt P07992)	-0.00478	-0.04
EIF3E_P60228_250_GRDNIIDLFLYQPQYLNAIQTMCPHILR (UniProt P60228)	0.0452	0.593
EIF3I_Q13347_76_HVLTGSADNSCR (UniProt Q13347)	-0.0836	-0.128
EIF3M_Q7L2H7_125_YTVYCSLIK (UniProt Q7L2H7)	-0.0368	0.11
EML3_Q32P44_825_VHLFQYPCAR (UniProt Q32P44)	0.303	0.179
ELANE_P08246_208_QAGVCFGDSGSPLVCNGLIHGIASFVR (UniProt P08246)	-0.0984	-0.486
EMG1_Q92979_66_TYELLNCDK (UniProt Q92979)	-0.0743	-0.116
EMILIN2_Q9BXX0_553_VQVVEDICLLNIQGKPHGMEGALPNREDR (UniProt Q9BXX0)	-0.356	-0.171
EML3_Q32P44_310_CLAVHPDGVR (UniProt Q32P44)	0.00439	0.218
ELF2_Q15723_591_TEGLVTCEK (UniProt Q15723)	-0.386	-0.43
EPHX1_P07099_182_NHGLSDEHVFEVICPSIPGYGFSEASSK (UniProt P07099)	0.0663	0.112
ELMO1_Q92556_726_EPSNYDFVYDCN (UniProt Q92556)	-0.585	-0.146

Not a retest: an excerpt of the list.
Target	probe-labelled cysteine peptide fold change (10 µM)	probe-labelled cysteine peptide fold change (50 µM)
EIF3I_Q13347_76_HVLTGSADNSCR (UniProt Q13347)	-0.0836	-0.128
EIF3M_Q7L2H7_125_YTVYCSLIK (UniProt Q7L2H7)	-0.0368	0.11
EML3_Q32P44_825_VHLFQYPCAR (UniProt Q32P44)	0.303	0.179

Remaining list, next part:

Target	probe-labelled cysteine peptide fold change (10 µM)	probe-labelled cysteine peptide fold change (50 µM)
ENOSF1_Q7L5Y1_67_GTEVVVCAVNALAHHVLNK (UniProt Q7L5Y1)	0.0208	-0.191
EIF3K_Q9UBQ5_85_ALTNLPHTDFTLCK (UniProt Q9UBQ5)	0.249	-0.0819
ELP4_Q96EB1_412_LGPGCGMMAGGK (UniProt Q96EB1)	-0.372	-1.07
EP300_Q09472_1272_MHQICVLHHEIIWPAGFVCDGCLK (UniProt Q09472)	0.116	0.126
ENAH_Q8N8S7_7_SEQSICQAR (UniProt Q8N8S7)	0.264	0.405
EIF4G3_O43432_1534_MFFDCLYDEEVISEDAFYK (UniProt O43432)	0.149	0.165
ELANE_P08246_254_SEDNPCPHPR (UniProt P08246)	-0.468	-0.401
EPC1_Q9H2F5_22_CEDLPDLHEYASINR (UniProt Q9H2F5)	-0.204	-0.164
EIF3D_O15371_19_FMTPVIQDNPSGWGPCAVPEQFR (UniProt O15371)	-0.15	-0.361
ERCC3_P19447_390_MWSTIDDSQICR (UniProt P19447)	-0.145	-0.298
EMC2_Q15006_192_AAFCLEELMMTNPHNHLYCQQYAEVK (UniProt Q15006)	0.0886	0.0397
EPRS_P07814_1076_KLGVENCYFPMFVSQSALEK (UniProt P07814)	0.288	0.373
EPRS_P07814_744_ERPTPSLNNNCTTSEDSLVLYNR (UniProt P07814)	-0.104	-0.0423
EME1_Q96AY2_437_ELADFTCAFTK (UniProt Q96AY2)	0.0835	-0.0629
EIF3D_O15371_404_HCNGVDWR (UniProt O15371)	-0.0253	-0.103
EML4_Q9HC35_428_TTNEVVLAVEFHPTDANTIITCGK (UniProt Q9HC35)	0.13	0.146
